Data from PubChem BioAssay AID504834 (National Center for Advancing Translational Sciences (NCATS), 2011).
Where “and” joins values, the source holds several entries; their conditions need not be identical. Equal values may be shown once. The whole screen tested about 320,000 compounds, of which about 22,000 (6.9%) were called active. Inconclusive means that the source gave no clear call. Such entries were picked first, then a sample of the others. The call rests on the fitted dose curve; in most records, active means well fitted inhibition curve with a large enough effect; inconclusive means small, poorly fitted or top-dose-only effect, or another doubt; inactive means no such curve, though single readings can be large or run the other way. Where the call is inconclusive, the potency comes from a doubtful curve fit.
Potency means the concentration at half of the fitted maximal effect.

Assay: Primary qHTS for delayed death inhibitors of the malarial parasite plastid, 96 hour incubation
Settings: P. falciparum luciferase reporter growth; series mostly up to 28.7 µM
Outline: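 P. falciparum expressing integrated firefly luciferase grown in erythrocytes (2% hematocrit, 0.05% parasitemia final) with compounds for 96 hours at 37 C, 5% CO2. Growth inhibition read as loss of luminescence after adding luciferase detection reagent.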
With `COc1cccc(Nc2nc3ccccc3c(=O)[nH]2)c1` the Potency was inconclusive: 5.22 µM [inhibitor, single point].
With `CCOC(=O)c1c(-c2ccc(C)o2)csc1NC(=O)CN1CCC(C(N)=O)CC1` the Potency was inconclusive: 18.5 µM [inhibitor, single point].
For `CC1CCC(NC(=O)CNC(=O)c2cccs2)CC1` (configuration not stated), the Potency was “inactive”.
With `Cc1ccc2c(Cl)c(C(=O)NCCCn3ccnc3)sc2c1` the Potency was inconclusive: 18.5 µM [inhibitor, single point].
With `C/C=C(\C)C(=O)N[C@@H](c1ccccc1)[C@@H](O)C(=O)O[C@H]1C[C@@]2(O)[C@@H](OC(=O)c3ccccc3)C3[C@](C)(C(=O)[C@H](O)C(=C1C)C2(C)C)[C@@H](O)C[C@H]1OC[C@@]31OC(C)=O` (some centres not stated) the Potency was active: 0.0738 µM.
With `COc1ccc(CC(=O)N2N=C(c3ccncc3)CC2(O)C(F)(F)F)cc1` (configuration not stated) the Potency was “inactive”.
With `CCCSc1nc(N2CCOCC2)c2c(c1C#N)CC(C)(C)SC2` the Potency was inconclusive: 3.7 µM [inhibitor, full curve, poor fit].
For `COC(=O)[C@@]12CCCCN1[C@H](c1ccc(SC3CCCCC3)c(OC)c1)[C@@H]1C(=O)N(C)C(=O)[C@@H]12`, the Potency was active: 8.28 µM.
In the case of `COC(=O)COc1ccc2oc(=O)cc(-c3cc4cccc(OC)c4o3)c2c1`, the Potency is reported as inconclusive: 18.5 µM [inhibitor, partial curve, poor fit].
For `Cc1nccn1CCCNC(=O)CC1C(=O)NCCN1Cc1ccc(F)cc1Cl` (configuration not stated), the Potency was inconclusive: 16.5 µM [inhibitor, single point].
For `O=C(NNc1ncnc2c1cnn2-c1cccc(Cl)c1)c1ccco1`, the Potency was inconclusive: 10.4 µM [inhibitor, partial curve].
For `C#CCOCCOCCOCCNc1nc(N2CCN(C(=O)CCCCCCCCCCNC(=O)[C@H]([C@@H](C)CC)n3cc(CCCCN=C(N)N)nn3)CC2)nc(N2CCN(C(=O)CCCCCCCCCCNC(=O)[C@@H]([C@H](C)O)n3cc(C)nn3)CC2)n1`, the Potency was inconclusive: 2.08 µM [inhibitor, partial curve, poor fit].
For `COc1ccc(N(CC(=O)N2CCOCC2)S(C)(=O)=O)cc1Cl`, the Potency was active: 11.7 µM.
In the case of `COc1ccc(S(=O)(=O)N(CC(=O)NCc2cccnc2)C2CCCCC2)cc1OC`, the Potency is reported as “inactive”.
For `CO/N=C(/CS(=O)(=O)Cc1ccccc1Cl)c1ccc(Cl)cc1Cl`, the Potency was inconclusive: 18.5 µM [inhibitor, single point].
For `Cc1nc(CS(=O)(=O)c2ccc(Cl)cc2)cc(Sc2ccccc2Cl)n1`, the Potency was inconclusive: 1.65 µM [inhibitor, full curve].
For `COc1ccc(CCNC(=O)/C=C/c2ccc(C)cc2)cc1OC`, the Potency was inconclusive: 0.0026 µM [inhibitor, full curve, poor fit].
In the case of `O=C(Cn1cccc1C(=O)c1ccccc1)NCCCc1ccccc1`, the Potency is reported as inconclusive: 1.17 µM [inhibitor, full curve].
In the case of `CNC(=O)COc1cccc(C(=O)NCc2ccccc2)c1`, the Potency is reported as “inactive”.
In the case of `COC(=O)[C@@]12CCCN1[C@H](c1ccc(-c3ccc(F)cc3)c(OC)c1)[C@H]1C(=O)N(C)C(=O)[C@H]12`, the Potency is reported as inconclusive: 11.7 µM [inhibitor, single point].
With `Cc1cc(OC(=O)c2ccco2)c2c3c(c(=O)oc2c1)CCC3` the Potency was inconclusive: 18.5 µM [inhibitor, single point].
In the case of `CCOC(=O)CNC(=S)N(Cc1ccccc1)Cc1cccnc1`, the Potency is reported as inconclusive: 8.28 µM [inhibitor, partial curve, poor fit].
For `CCCc1nnc(NC(=O)CN2C(=O)c3ccccc3C2=O)s1`, the Potency was inconclusive: 18.5 µM [inhibitor, single point].
For `CCOc1cc(/C=N/NC(=O)c2cccnc2)ccc1OCC(N)=O`, the Potency was inconclusive: 0.828 µM [inhibitor, partial curve, poor fit].
With `COc1ccc2oc(=O)c(C(C)=O)cc2c1` the Potency was “inactive”.
In the case of `COc1cccc(-n2nnc3c(=O)n(Cc4ccc(C)cc4)cnc32)c1`, the Potency is reported as “inactive”.
With `CCn1c(SCC(=O)Nc2ccc3c(c2)OCCO3)nnc1-c1ccccn1` the Potency was active: 2.08 µM.
With `Cc1cccc(C)c1NS(=O)(=O)c1cc2c3c(c1)CC(=O)N3CCC2` the Potency was inconclusive: 13.1 µM [inhibitor, partial curve, poor fit].
For `O=C(NCCCN1CCOCC1)C(C(=O)c1ccccc1)n1ccccc1=O` (configuration not stated), the Potency was inconclusive: 9.28 µM [inhibitor, single point].
In the case of `CC(C)c1c(C(=O)N/N=C/C=C/c2ccccc2)nnn1-c1nonc1N`, the Potency is reported as inconclusive: 18.5 µM [inhibitor, single point].
With `COc1cc(C)c(C)cc1S(=O)(=O)n1c(C)nc2ccccc21` the Potency was inconclusive: 18.5 µM [inhibitor, single point].
For `CCN(CC)S(=O)(=O)c1cccc(NC(=O)c2ccc(Sc3nncn3C)c([N+](=O)[O-])c2)c1`, the Potency was inconclusive: 0.522 µM [inhibitor, full curve, poor fit].
With `CC1CCc2nn(CC(=O)NCCCN3CCCC3=O)cc2C1` (configuration not stated) the Potency was inconclusive: 16.5 µM [inhibitor, partial curve, poor fit].
With `COc1cc(Cl)c(C)cc1NCC(=O)Nc1cccc(S(=O)(=O)N2CCCC2)c1` the Potency was inconclusive: 18.5 µM [inhibitor, single point].
In the case of `Oc1ccc(-c2[nH]ncc2-c2ccc(Cl)cc2)c(O)c1`, the Potency is reported as “inactive”.
With `COc1ccc(C(=O)Nc2ccccc2C(=O)NCc2ccco2)cc1OC` the Potency was inconclusive: 18.5 µM [inhibitor, single point].
With `O=C(c1sccc1Cl)N1CCN(Cc2ccc3c(c2)OCO3)CC1` the Potency was “inactive”.
In the case of `O=C1c2ccccc2S(=O)(=O)N1CC(O)Cn1c2ccccc2c2ccccc21` (configuration not stated), the Potency is reported as inconclusive: 20.8 µM [inhibitor, single point].
For `CCOc1ccccc1N1CCN(C(=S)NC(=O)C23CC4CC(CC(C4)C2)C3)CC1`, the Potency was inconclusive: 1.85 µM [inhibitor, full curve, poor fit].
With `O=C(NCc1ccc2c(c1)OCO2)c1ccc(-n2cnnn2)cc1` the Potency was active: 1.65 µM.
For `O=C(C1CCCO1)N1CCN(S(=O)(=O)c2ccc(Br)cc2)CC1` (configuration not stated), the Potency was “inactive”.
In the case of `COCCN1Cc2cc3cc(C)ccc3nc2SC1=Nc1ccc(OC)cc1`, the Potency is reported as “inactive”.
For `COc1ccc(Br)cc1CNC(=O)c1ccc2c(c1)N(C)CCS2`, the Potency was inconclusive: 13.1 µM [inhibitor, single point].
For `O=C(NCCCl)Nc1ccccc1OCCOc1ccccc1NC(=O)NCCCl`, the Potency was active: 2.08 µM.
In the case of `COC(=O)Cc1c(C)nc2nc(-c3ccc(Cl)cc3)[nH]n2c1=O`, the Potency is reported as “inactive”.
For `Cc1cccc[n+]1C1C(c2ccccc2)C(C#N)=C(C(=C=[N-])C#N)NC1(O)C1CC1` (configuration not stated), the Potency was inconclusive: 18.5 µM [inhibitor, single point].
With `COc1ccc2nc(NNC(=O)c3cc(=O)c4ccccc4o3)sc2c1` the Potency was inconclusive: 2.62 µM [inhibitor, full curve].
In the case of `Cc1ccc2c(c1)SC1=NC(c3ccccc3)(C(F)(F)F)NC(=O)N12` (configuration not stated), the Potency is reported as “inactive”.
With `O=C(NCc1ccccc1)c1ccc(CS(=O)(=O)c2ccc(Br)cc2)o1` the Potency was inconclusive: 18.5 µM [inhibitor, single point].
For `COc1ccccc1CCNCc1cc2c(cc1[N+](=O)[O-])OCO2`, the Potency was “inactive”.
For `O=C(C1CCN(S(=O)(=O)c2ccc(Cl)c(C(F)(F)F)c2)CC1)N1CCC1`, the Potency was “inactive”.
With `O=C(Cn1cnc2c(nnn2Cc2ccccc2)c1=O)N1CCCc2ccccc21` the Potency was active: 11.7 µM.
With `CCOc1ccc(NC(=O)CCNC(=O)N2C[C@H]3C[C@@H](C2)c2cccc(=O)n2C3)cc1` the Potency was “inactive”.
For `O=C(c1cc2ccccc2o1)N1CCN(Cc2ccccc2)CC1`, the Potency was inconclusive: 13.5 µM [inhibitor, single point] and inconclusive: 18.5 µM [inhibitor, single point].
In the case of `COc1ccccc1N1CCN(C(=O)C(C)N(c2ccc(C)c(C)c2)S(C)(=O)=O)CC1` (configuration not stated), the Potency is reported as active: 11.7 µM.
For `CCn1ccnc1CN1CCc2c([nH]c3ccccc23)C1CC(C)C` (configuration not stated), the Potency was inconclusive: 16.5 µM [inhibitor, partial curve, poor fit].
For `COc1cc(C2NC(=O)NC(C)=C2C(=O)OC(C)C)ccc1OC(=O)c1ccco1` (configuration not stated), the Potency was “inactive”.
In the case of `COc1ccccc1NC(=S)NNC(=O)c1cc(C)nn1C`, the Potency is reported as inconclusive: 7.38 µM [inhibitor, partial curve, poor fit].
With `O=C(Nc1ccccc1C(=O)NC1CCCCC1)c1ccco1` the Potency was inconclusive: 18.5 µM [inhibitor, single point].
For `COC(=O)c1sc2nc(CSc3nc4ccc(C)cc4[nH]3)[nH]c(=O)c2c1C`, the Potency was inconclusive: 0.208 µM [inhibitor, full curve, poor fit].
For `O=C(Nc1nncs1)c1cccnc1Cl`, the Potency was “inactive”.
With `Cc1ccc(NC(=O)CSc2ccc(-c3ccccn3)nn2)c(C)c1` the Potency was inconclusive: 18.5 µM [inhibitor, single point].
With `c1ccc(Nc2ncnc3[nH]ncc23)cc1` the Potency was “inactive”.
In the case of `O=C(NCc1ncc(C(F)(F)F)cc1Cl)Nc1ccccc1`, the Potency is reported as “inactive”.
In the case of `COc1ccc(/C=C(\NC(=O)c2ccccc2)C(=O)N/N=C/c2ccncc2)cc1`, the Potency is reported as inconclusive: 0.037 µM [inhibitor, full curve, poor fit].
For `O=C(NCc1ccccc1)c1onc(CSc2ccccc2)c1C(=O)NCC1CC1`, the Potency was inconclusive: 10.4 µM [inhibitor, single point].
With `CCc1cc(/C(Cc2ccccn2)=N\Nc2ccccc2)c(O)cc1O` the Potency was inconclusive: 18.5 µM [inhibitor, single point].
